Laboratory results from PubChem BioAssay AID624363 (Broad Institute, 2012).
These results got no clear call from the source, so the numbers are uncertain.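 The calls were made as follows: active = in every test run, a falling-signal curve whose half-maximal concentration is at most twice the top tested dose; inconclusive = runs disagree, flat fit at 30 to 70% inhibition, or poor fit; inactive = every test run inactive.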

Test: MITF transcriptional activity inhibition, TRPM1 luciferase – cell-based, SK-MEL-5, dry powder, set 5, dose response (AID 624363)
Details: SK-MEL-5 TRPM1 promoter luciferase reporter, 24 h; at 35 µM (top of the series)
In short: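 Material: SK-MEL-5 TRPM1 promoter luciferase reporter cells / Quantity: 2000 reporter cells per well / Incubation: compound exposure 24 h at 37 °C, one day after plating / Benchmarks: parthenolide at 27 µM as positive control / Buffer or medium: phenol red-free DMEM, 10% FBS / Detection: SteadyGlo luciferase luminescence after 5 min at room temperature / Compound: pin-transferred compounds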

Q: Which activity change, negative = inhibition does the source give for O=C(NC1=C(N2CCCCC2)C(=O)c2ccccc2C1=O)c1ccc(Br)cc1 here?
A: inconclusive: -30.8%
